From PubChem BioAssay AID1259354 (Paczesny and Yang Labs, IUPUI and University of Michigan, 2018)
Among all 78,000 compounds or so, about 1,800 (2.3%) were called active. The shares of active, inactive and inconclusive entries below differ from those in the screen. Rule as the data show it: active = inhibition above about 30%; inconclusive = mostly about 10% to 28%; inactive = weaker than that.

Amino acid sequences for entries named in this document (tags omitted). A change or cut given only in a name is not applied to a line headed by its entry.
UniProt Q01638: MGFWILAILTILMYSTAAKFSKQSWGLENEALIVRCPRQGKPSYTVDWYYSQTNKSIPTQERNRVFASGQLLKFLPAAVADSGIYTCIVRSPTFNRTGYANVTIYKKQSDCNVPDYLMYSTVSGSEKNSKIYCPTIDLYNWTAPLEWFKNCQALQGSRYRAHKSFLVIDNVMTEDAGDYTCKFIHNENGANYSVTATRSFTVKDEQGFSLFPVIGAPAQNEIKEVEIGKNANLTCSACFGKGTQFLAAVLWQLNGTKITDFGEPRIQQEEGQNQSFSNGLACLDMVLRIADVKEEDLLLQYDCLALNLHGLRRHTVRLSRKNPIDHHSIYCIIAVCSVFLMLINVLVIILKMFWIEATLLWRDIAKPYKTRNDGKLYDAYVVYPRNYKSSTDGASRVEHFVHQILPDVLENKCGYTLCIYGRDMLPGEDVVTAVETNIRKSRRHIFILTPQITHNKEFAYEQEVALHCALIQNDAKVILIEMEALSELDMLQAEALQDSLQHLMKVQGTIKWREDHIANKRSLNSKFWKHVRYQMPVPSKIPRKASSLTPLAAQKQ

The compounds below were run against Interleukin-1 receptor-like 1 (Homo sapiens) (UniProt Q01638) (assay: blocks human ST2 binding to IL-33, primary screen, biochemical, AlphaLISA (AID 1259354)). Details: AlphaLISA ST2-Fc/biotin-IL-33 interaction, 1 h; at 17 µM, hits give high values.

Q: With CN(CCc1ccccc1)C1CCCN(C(=O)CSc2ncn[nH]2)C1 (stereo unspecified) as the compound, how does the inhibition read?
A: inactive

Q: Which inhibition does the source give for COc1ccc(-c2oc3ncn(CCO)c(=N)c3c2-c2ccc(OC)cc2)cc1 here?
A: inactive

Q: Which inhibition does the source give for CCOc1ccc(NC(=O)c2ccc(N)cc2)cc1 here?
A: inconclusive: 21%

Q: How did the inhibition turn out when COc1ccc(CC(=O)N2Cc3[nH]cnc3C[C@H]2c2nc(-c3ccc4ccccc4c3)no2)cc1 was run?
A: inconclusive: 12%

Q: Nc1nc(C23CC4CC(CC(C4)C2)C3)cs1 was tested. Which inhibition did it give?
A: inconclusive: 16%

Q: How did the inhibition turn out when Cc1cc(C)n(Cc2ccc(C(=O)N3CCC4(CN(C)C(=O)O4)C3)cc2)n1 (stereo unspecified) was run?
A: inactive

Q: With CNCC(=O)N1CCCCC1CCc1cccs1 (stereo unspecified) as the compound, how does the inhibition read?
A: inactive

Q: CCOC(=O)c1c(-c2ccccc2)oc2cc(Br)c(OC)cc12 was tested. Which inhibition did it give?
A: inactive

Q: Which inhibition does the source give for Cc1ccc(NCC(=O)c2ccc([N+](=O)[O-])cc2)cc1 here?
A: active: 36%

Q: With CC1=CCC(COC(=O)CN2CCCCC2)CC1 (stereo unspecified) as the compound, how does the inhibition read?
A: inactive

Q: Which inhibition does the source give for CSc1cccc(NC(=O)COc2ccccc2Cl)c1 here?
A: inactive

Q: Which inhibition does the source give for C=CCOc1ccc(C2C(C(=O)OC(C)C)=C(C)N=C3SCCC(=O)N32)cc1OC (stereo unspecified) here?
A: inconclusive: 10%

Q: How did the inhibition turn out when O=C(/C=C/c1ccccc1)NCCc1nc2ccccc2[nH]1 was run?
A: inconclusive: 11%

Q: With COc1cc(NC(=O)/C=C/c2ccc(Cl)cc2)ccc1NC(=O)c1ccco1 as the compound, how does the inhibition read?
A: inactive

Q: For N#C/C(=C\c1ccc(-c2ccc(C(=O)O)cc2)o1)c1nc2ccccc2[nH]1, which inhibition is on record?
A: inconclusive: 18%

Q: For Cc1ccc(-c2noc(CCC(=O)Nc3ccc(C)cn3)n2)cc1, which inhibition is on record?
A: inactive

Q: For CCC(=O)Nc1nc(-c2cccc([N+](=O)[O-])c2)nc2c1c(=O)oc1ccccc12, which inhibition is on record?
A: inactive

Q: With CC(C)N(Cc1nccn1C)c1nc2nonc2nc1NCc1cccs1 as the compound, how does the inhibition read?
A: inactive

Q: How did the inhibition turn out when Cc1ccccc1OCC(=O)Nc1cccc(OCc2cc(=O)n3cc(Cl)ccc3n2)c1 was run?
A: inconclusive: 18%

Q: Cc1ccc(Oc2ncccc2CNC(=O)c2c(C)cccc2Cl)cn1 was tested. Which inhibition did it give?
A: inconclusive: 10%

Q: How did the inhibition turn out when COc1ccc(-c2cc(-c3ccccc3)nc3n[nH]c(N)c23)cc1 was run?
A: inconclusive: 22%

Q: How did the inhibition turn out when N#Cc1nc(COc2ccc(Br)cc2)oc1N1CCN(Cc2ccccc2)CC1 was run?
A: active: 56%

Q: How did the inhibition turn out when CN1CCc2c(sc3c2C(=O)NC(c2ccc(OC(=O)c4ccc(Cl)cc4)cc2)N3)C1 (stereo unspecified) was run?
A: inconclusive: 11%

Q: For Cc1ccc(NC(=O)c2ccc(Br)o2)c([N+](=O)[O-])c1, which inhibition is on record?
A: inconclusive: 10%

Q: Which inhibition does the source give for O=S(=O)(N=C(Nc1ccccn1)c1ccccc1)c1ccc(Cl)cc1 here?
A: inconclusive: 19%

Q: How did the inhibition turn out when Cc1ccc(-c2nc3cccnc3n2CCCNS(=O)(=O)N(C)C)cc1 was run?
A: inconclusive: 29%

Q: CC(=O)Nc1ccc2c(c1)Cc1cc(NC(C)=O)ccc1-2 was tested. Which inhibition did it give?
A: inactive

Q: Which inhibition does the source give for COc1ccccc1NC(NC(=O)c1cccc(Cl)c1)C(Cl)(Cl)Cl (stereo unspecified) here?
A: inactive

Q: Which inhibition does the source give for CC1CCN(S(=O)(=O)c2ccc(C(=O)Nc3nnc(-c4ccc(F)cc4)o3)cc2)CC1 here?
A: inconclusive: 13%

Q: With C[C@@H]1O[C@@H](OC2C(Oc3cc(O)c4c(c3)OC(c3ccc(O)cc3)CC4=O)OC(CO)C(O)C2O)[C@H](O)[C@H](O)[C@H]1O (stereo partly specified) as the compound, how does the inhibition read?
A: inconclusive: 14%

Q: For CC(=O)N1CCN([C@H]2[C@@H]3OC[C@@H](O3)[C@@H](NCc3ccccc3O)[C@@H]2O)CC1, which inhibition is on record?
A: inconclusive: 17%

Q: Cc1cc(C)n(-c2ccc(C(=O)N3CCNCC3C(=O)NC3CC3)cc2)n1 (stereo unspecified) was tested. Which inhibition did it give?
A: inconclusive: 17%

Q: CC(C)C1CN(Cc2c[nH]c(=O)[nH]c2=O)CCC(=O)N1CC1CC1 (stereo unspecified) was tested. Which inhibition did it give?
A: inconclusive: 21%

Q: How did the inhibition turn out when O=C(O)C1CCCN1S(=O)(=O)c1ccc([N+](=O)[O-])cc1 (stereo unspecified) was run?
A: inactive

Q: For CC(=O)Nc1cccc(-c2nccc(CCC(F)(F)F)n2)c1, which inhibition is on record?
A: inactive

Q: For COc1cccc(CN2CCCC(O)(CN3CCOCC3)C2=O)c1OC (stereo unspecified), which inhibition is on record?
A: inactive

Q: With Cc1ccc(CN(C)C(=O)c2cccc(-c3ncc[nH]3)c2)o1 as the compound, how does the inhibition read?
A: inconclusive: 13%

Q: Which inhibition does the source give for Cc1sc2nc3n(sc4nc5sc(C)c(C)c5c(=O)n43)c(=O)c2c1C here?
A: inactive

Q: With Cc1cccc(CN(CC(=O)NCc2ccncc2)S(=O)(=O)c2ccc(Cl)cc2)c1 as the compound, how does the inhibition read?
A: inconclusive: 12%

Q: For CCOc1cc(C(=O)Nc2ccc(N3CCCC3)cc2)cc(OCC)c1OCC, which inhibition is on record?
A: inconclusive: 11%

Q: For C=CCC(=O)N1CCc2ccc(NC(=O)CCc3ccc(C)cc3)cc2C1, which inhibition is on record?
A: inactive

Q: How did the inhibition turn out when COc1ccc(OC)c(-c2nc3sc4c(c3c(=O)[nH]2)CCCC4)c1 was run?
A: inconclusive: 10%

Q: Which inhibition does the source give for O=[N+]([O-])c1ccc(-c2nc(Cc3ccccc3Cl)no2)cc1 here?
A: inconclusive: 18%

Q: Which inhibition does the source give for C=CCNC(=O)c1ccc(-c2cccc(-n3cccn3)c2)o1 here?
A: inconclusive: 15%

Q: How did the inhibition turn out when O=C1CCCN2N=C(SC/C=C/c3ccccc3)SC2=N1 was run?
A: inconclusive: 11%

Q: Which inhibition does the source give for Cc1cc(C)c(C(=O)N2CCCC(C(=O)c3ccc(C(F)(F)F)cc3)C2)[nH]1 (stereo unspecified) here?
A: inactive

Q: How did the inhibition turn out when Cc1ccncc1C(=O)N(C)Cc1ccccc1OCC(C)C was run?
A: inconclusive: 10%

Q: COc1cc(/C=C2\C(=O)NN(c3ccccc3)C2=O)ccc1OCc1c(F)cccc1Cl was tested. Which inhibition did it give?
A: inconclusive: 19%

Q: For CC(C)(CO)NC(=O)NC1CCCCC1, which inhibition is on record?
A: inconclusive: 17%

Q: How did the inhibition turn out when c1ccc(-c2nc3nonc3c3nc4ccccc4n23)cc1 was run?
A: inconclusive: 10%

Q: How did the inhibition turn out when COc1ccc(CNC2(Cc3cc(CN(C)Cc4ccccc4)on3)COC2)cc1 was run?
A: inactive

Q: With Cc1cn(C2CCC(CO)O2)c(=O)[nH]c1=O (stereo unspecified) as the compound, how does the inhibition read?
A: inconclusive: 21%

Q: How did the inhibition turn out when Cc1nc2c(-c3ccc(F)cc3)c(C)nn2c(C)c1CCC(=O)Nc1ccc(F)cc1F was run?
A: inconclusive: 11%

Q: CNc1nc(N2CCN(Cc3nccn3C(C)C)CC2)nc2c1CCC2 was tested. Which inhibition did it give?
A: inconclusive: 17%

Q: COc1ccccc1N1CCN(C(=O)CCCC(=O)O)CC1 was tested. Which inhibition did it give?
A: inactive

Q: CN(Cc1n[nH]c2c1CCCC2)C(=O)C1CCC(=O)N(CCCc2ccccc2)C1 (stereo unspecified) was tested. Which inhibition did it give?
A: inconclusive: 15%

Q: For Cn1c(=O)n(C)c2cc(CNC(=O)Cc3c[nH]c4ccccc34)ccc21, which inhibition is on record?
A: active: 30%

Q: How did the inhibition turn out when CCCCNC(=O)CSc1nc2ccccc2c2nc3ccccc3n12 was run?
A: inconclusive: 16%

Q: Which inhibition does the source give for Cc1[nH]cnc1C(=O)N1CCN(C2CCc3ccccc3C2)CC1 (stereo unspecified) here?
A: inconclusive: 12%

Q: How did the inhibition turn out when O=C(c1ccccc1F)N1CCN=C1SCc1ccc(Cl)cc1 was run?
A: inactive

Q: How did the inhibition turn out when Cc1ccnc(NC(=O)Nc2ccc(Cl)cc2)c1 was run?
A: inconclusive: 14%

Q: With c1ccc2c(Nc3ccc4c(c3)OCCO4)c3c(nc2c1)CCC3 as the compound, how does the inhibition read?
A: inconclusive: 19%

Q: CCC1CCCCN1S(=O)(=O)c1ccc2[nH]c(=O)cc(C(=O)NC3CCCC3)c2c1 (stereo unspecified) was tested. Which inhibition did it give?
A: inactive

Q: How did the inhibition turn out when Cc1ccsc1CNc1cccc(C(=O)N2CCn3cncc3C2)c1 was run?
A: inconclusive: 12%

Q: For COc1ccc(OC)c(NC(=O)C(c2ccccc2)c2ccccc2)c1, which inhibition is on record?
A: inactive

Q: Cc1cccc(SCc2cc(=O)n3oc(C)cc3n2)c1 was tested. Which inhibition did it give?
A: inconclusive: 10%

Q: How did the inhibition turn out when OCc1ccc(CN2CCCC(c3ccccc3)C2)o1 (stereo unspecified) was run?
A: inconclusive: 11%

Q: With COc1cccc(N2C(=O)CC(Nc3ccc(N4CCOCC4)cc3)C2=O)c1 (stereo unspecified) as the compound, how does the inhibition read?
A: active: 47%

Q: With Cc1c(Cl)cccc1NS(=O)(=O)c1ccccc1 as the compound, how does the inhibition read?
A: inconclusive: 16%

Q: For O=c1c2c(nc(SCc3cccc(F)c3)n1-c1ccc(F)cc1)CCS2, which inhibition is on record?
A: inconclusive: 12%

Q: How did the inhibition turn out when CC1(C)CC(=O)C2=C(C1)Nc1nc(SCc3ccccc3)nn1C2c1ccc([N+](=O)[O-])cc1 (stereo unspecified) was run?
A: inconclusive: 17%

Q: How did the inhibition turn out when Cc1cc(NC(=O)Cc2ccccc2)ccc1O was run?
A: inconclusive: 26%

Q: CCCc1cc(C(=O)Nc2ccc(Br)cc2)no1 was tested. Which inhibition did it give?
A: inactive

Q: Which inhibition does the source give for COc1ccc(CNC(=O)C[C@@H]2O[C@H](CNCc3cccc(Cl)c3)[C@@H](O)[C@H]2O)cc1 here?
A: inconclusive: 16%

Q: O=C(NCCc1ccccc1)N1CCCC(Nc2ccc3c(c2)OCO3)C1 (stereo unspecified) was tested. Which inhibition did it give?
A: inconclusive: 11%

Q: For O=C1c2cccnc2C(O)N1Cc1ccco1 (stereo unspecified), which inhibition is on record?
A: inconclusive: 20%

Q: With Cc1cccc(C2=N/C(=C\c3ccc(N(C)C)cc3)C(=O)O2)c1 as the compound, how does the inhibition read?
A: active: 39%

Q: With CC(=O)N1CCC(Oc2ccc(Cl)cc2C(=O)NC2(c3ccccc3)CC2)CC1 as the compound, how does the inhibition read?
A: inactive

Q: For CSc1ccc(-c2nc3cnccn3c2Nc2ccc(C)cc2)cc1, which inhibition is on record?
A: inactive

Q: For CC(C)N(C)Cc1nnnn1CC(=O)N1CCCCC1c1ccc(F)cc1 (stereo unspecified), which inhibition is on record?
A: inconclusive: 13%

Q: Which inhibition does the source give for COc1ccccc1N1CCN(c2ncnc3sc(C)c(C)c23)CC1 here?
A: inconclusive: 12%

Q: With NC(=O)c1cncc(-c2ccc(F)cc2Cl)c1 as the compound, how does the inhibition read?
A: inconclusive: 13%

Q: Which inhibition does the source give for Cc1cc2nc(N3CCCN(Cc4cccc5cccnc45)CC3)nc(C)c2cc1C here?
A: inconclusive: 18%

Q: Oc1ccc(F)cc1C1=NNC(c2ccc3c(c2)OCCO3)C1 (stereo unspecified) was tested. Which inhibition did it give?
A: inconclusive: 20%

Q: How did the inhibition turn out when O=C1c2ccccc2C(=O)c2c(O)ccc(O)c21 was run?
A: inconclusive: 17%

Q: COc1ccccc1Oc1c(F)c(F)nc(N2CCOCC2)c1F was tested. Which inhibition did it give?
A: inconclusive: 14%

Q: How did the inhibition turn out when COc1ccc(C(=O)Nc2ccc(S(=O)(=O)N3CCCC3)cc2)cc1[N+](=O)[O-] was run?
A: inconclusive: 18%

Q: Which inhibition does the source give for Cc1cccc(Cn2c(CNS(=O)(=O)c3ccccc3Cl)nc3cccnc32)c1 here?
A: inactive

Q: How did the inhibition turn out when CC1=C(C(=O)Nc2ccc(F)cc2F)C(c2cccs2)C2=C(CCCC2=O)N1 (stereo unspecified) was run?
A: inactive

Q: With CCc1nc(-c2c(-c3ccccc3)ncn2CCn2cc(C)nn2)c(C)[nH]1 as the compound, how does the inhibition read?
A: inconclusive: 19%

Q: How did the inhibition turn out when CCC(CC)CC(=O)N1CC(N2CCCCC2C)C1 (stereo unspecified) was run?
A: inconclusive: 17%

Q: How did the inhibition turn out when O=c1n(Cc2cccc(F)c2F)nc(C2CCNCC2)n1Cc1ccccc1 was run?
A: inactive

Q: For COCC(=O)N[C@H]1CC[C@]2(C)CC[C@@H]([C@H](C)C(=O)NC(C)C)[C@H](O)[C@H]2[C@@H]1C, which inhibition is on record?
A: inconclusive: 12%

Q: COc1ccc(N2CCN(c3ncnc4sc(C(=O)N5CCOCC5)c(C)c34)CC2)cc1 was tested. Which inhibition did it give?
A: inconclusive: 12%

Q: How did the inhibition turn out when CN(C)c1ccc(C2OCC3(CO2)SC(=O)NC3=O)cc1 (stereo unspecified) was run?
A: inactive

Q: Which inhibition does the source give for Cc1nc2c(sc3cc([N+](=O)[O-])cc(SCc4ccccc4)c32)c(=O)n1C here?
A: inactive
